Data published in publication PMC7873046, “Structure of the Complete Dimeric Human GDAP1 Core Domain Provides Insights into Ligand Binding and Clustering of Disease Mutations” (Frontiers in Molecular Biosciences, 2021).
No constants are given. Whether binding was seen depends on the method and setting. Some binding calls cover weakened binding; strength is not graded here.

How the values were obtained:
[1] = molecular target: GDAP1∆303-358 Y29F (human) (UniProt Q8TB36); experiment: SEC; Superdex 200 or Superdex 75 10/300 GL increase; 25 mM HEPES pH 7.5, 300 mM NaCl; two concentrations of each construct; mutants at 5 mg/ml; both purified
[2] = molecular target: GDAP1∆303-358 Y29E/C88A (human) (UniProt Q8TB36); experiment: SEC-SAXS; 50 µL of protein at 8.5-10 mg/ml injected into BioSEC3-300 or Superdex 75 10/300 GL increase; 25 mM HEPES pH 7.5, 300 mM NaCl; +15 °C; GDAP1∆295-358 and GDAP1∆319-358 also with hexadecanedioic acid (HA), which gave a higher monomer fraction; both purified
[3] = molecular target: full-length GDAP1L1 (UniProt Q96MZ0); experiment: non-reducing SDS-PAGE; SEC eluates of purified proteins on a non-reducing gel (GDAP1L1 also on a reducing gel); shows the covalent (disulfide) dimer; both purified
[4] = molecular target: full-length GDAP1L1 (UniProt Q96MZ0); experiment: SEC-SAXS; 50 µL of protein at 8.5-10 mg/ml injected into BioSEC3-300 or Superdex 75 10/300 GL increase; 25 mM HEPES pH 7.5, 300 mM NaCl; +15 °C; GDAP1∆295-358 and GDAP1∆319-358 also with hexadecanedioic acid (HA), which gave a higher monomer fraction; both purified

B1: GDAP1∆303-358 Y29F (domain or fragment, human, UniProt Q8TB36 1-302, looked up)
chain: MAERQEEQRGSPPLRAEGKADAEVKLILFHWTHSFSSQKVRLVIAEKALKCEEHDVSLPLSEHNEPWFMRLNSTGEVPVLIHGENIICEATQIIDYLEQTFLDERTPRLMPDKESMYYPRVQHYRELLDSLPMDAYTHGCILHPELTVDSMIPAYATTRIRSQIGNTESELKKLAEENPDLQEAYIAKQKRLKSKLLDHDNVKYLKKILDELEKVLDQVETELQRRNEETPEEGQQPWLCGESFTLADVSLAVTLHRLKFLGFARRNWGNGKRPNLETYYERVLKRKTFNKVLGHVNNILIS
notes: Point mutant of m2, made by site-directed mutagenesis PCR; source: E. coli BL21 (DE3), purified (Ni-NTA, TEV cleavage, SEC); not shown: His6, N-terminal, cleaved
**Q.** With B1 as the binder, how does the binding [1] read?
**A.** The binding was “binds weakly”.

B2: GDAP1∆303-358 Y29E/C88A (domain or fragment, UniProt Q8TB36 1-302)
chain: MAERQEEQRGSPPLRAEGKADAEVKLILEHWTHSFSSQKVRLVIAEKALKCEEHDVSLPLSEHNEPWFMRLNSTGEVPVLIHGENIIAEATQIIDYLEQTFLDERTPRLMPDKESMYYPRVQHYRELLDSLPMDAYTHGCILHPELTVDSMIPAYATTRIRSQIGNTESELKKLAEENPDLQEAYIAKQKRLKSKLLDHDNVKYLKKILDELEKVLDQVETELQRRNEETPEEGQQPWLCGESFTLADVSLAVTLHRLKFLGFARRNWGNGKRPNLETYYERVLKRKTFNKVLGHVNNILIS
**Q.** Which binding [2] does the source give for B2 here?
**A.** Its binding is “no binding”.

B3: full-length GDAP1L1 (protein, UniProt Q96MZ0 1-367)
chain: MATPNNLTPTNCSWWPISALESDAAKPAEAPDAPEAASPAHWPRESLVLYHWTQSFSSQKVRLVIAEKGLVCEERDVSLPQSEHKEPWFMRLNLGEEVPVIIHRDNIISDYDQIIDYVERTFTGEHVVALMPEVGSLQHARVLQYRELLDALPMDAYTHGCILHPELTTDSMIPKYATAEIRRHLANATTDLMKLDHEEEPQLSEPYLSKQKKLMAKILEHDDVSYLKKILGELAMVLDQIEAELEKRKLENEGQKCELWLCGCAFTLADVLLGATLHRLKFLGLSKKYWEDGSRPNLQSFFERVQRRFAFRKVLGDIHTTLLSAVIPNAFRLVKRKPPSFFGASFLMGSLGGMGYFAYWYLKKKYI
**Q.** With B3 as the binder, how does the binding [3] read?
**A.** The binding was “no binding”.

**Q.** What about the binding [4] of the same binder?
**A.** Its binding is “no binding”.
